# From PubChem BioAssay AID2551 (National Center for Advancing Translational Sciences (NCATS), 2010)
# Amino acid sequences for entries named in this document (tags omitted). A change or cut given only in a name is not applied to a line headed by its entry.
# UniProt P51450: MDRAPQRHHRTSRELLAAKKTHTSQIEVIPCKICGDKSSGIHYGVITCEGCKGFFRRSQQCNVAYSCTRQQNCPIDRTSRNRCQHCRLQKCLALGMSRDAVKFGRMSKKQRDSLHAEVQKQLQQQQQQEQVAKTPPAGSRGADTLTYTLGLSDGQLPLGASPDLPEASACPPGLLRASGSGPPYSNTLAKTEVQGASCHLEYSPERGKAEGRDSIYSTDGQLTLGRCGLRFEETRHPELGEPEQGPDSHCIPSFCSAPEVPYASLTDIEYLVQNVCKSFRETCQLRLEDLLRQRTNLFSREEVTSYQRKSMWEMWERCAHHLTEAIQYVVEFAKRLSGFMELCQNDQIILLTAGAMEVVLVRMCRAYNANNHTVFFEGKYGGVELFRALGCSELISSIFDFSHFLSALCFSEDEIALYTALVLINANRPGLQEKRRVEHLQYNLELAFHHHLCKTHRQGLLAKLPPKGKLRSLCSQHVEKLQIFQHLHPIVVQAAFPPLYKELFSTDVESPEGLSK
# The campaign covered roughly 310,000 compounds. About 17,000 (5.5%) were called active. The inconclusive results got no clear call from the source; some entries with a clear call stand among them for comparison. The call rests on the fitted dose curve; in most records, active means well fitted inhibition curve with a large enough effect; inconclusive means small, poorly fitted or top-dose-only effect, or effect the other way; inactive means no such curve, though single readings can be large or run the other way. Potencies beside an inconclusive call are fits to weak or partial responses and may not hold up.
# Target: Nuclear receptor ROR-gamma (Mus musculus) (UniProt P51450)
# Assay: qHTS for inhibitors of ROR gamma transcriptional activity; further: nearly all actives have a fitted effect of over 60% in size
# Details: Drosophila S2 Gal4-RORgamma UAS-luciferase reporter, 20 h; activity change, negative = inhibition: at 53.6 µM (top of the series)
# Method in brief: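 Luminescence from a UAS-regulated Photinus luciferase reporter in stably transfected Drosophila Schneider cells is measured; decreased signal marks ROR gamma inhibition. Fusion expression is induced by 700 uM copper sulfate for 20 hr.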
# On the % scale 0 is the no-effect control and ±100 the full control effect; potency means the concentration at half of the fitted maximal effect.
SMILES,Potency,"activity change, negative = inhibition"
COc1cc(C(=O)Oc2ccccc2/C=N/NC(=O)c2ccc(Cl)cc2)cc(OC)c1OC,active: 6.31 µM,–
O=c1c2cc([N+](=O)[O-])ccc2nc(CN2CCN(c3ccccn3)CC2)n1-c1ccccc1F,inactive,–
Cc1ccc(-c2nnc(SCc3ccccc3F)o2)cc1,"inconclusive: 31.6 µM [inhibitor, single point]",–
Cc1noc(C)c1C(=O)Nc1ccc(S(=O)(=O)N2CCCCC2)cc1,"inconclusive: 35.5 µM [activator, single point]",–
O=[N+]([O-])c1ccc2oc(C(O)c3cccc(Cl)c3)cc2c1 (stereo not given),inactive,–
CCC1(C)Cc2nc3[nH]c(=S)n(-c4ccccc4C)c(=O)c3cc2CO1 (stereo not given),active: 6.31 µM,–
Cc1cc(C(=O)NN=C2C3CC4CC(C3)CC2C4)c2ccccc2n1,"inconclusive: 35.5 µM [inhibitor, single point]",–
Cc1cc(Cl)c2oc(C(=O)N(C)Cc3ccon3)c(C)c2c1,inactive,–
COc1ccc(C2CC(c3ccccc3)Nc3nc(NC(=O)c4cccs4)nn32)cc1 (stereo not given),active: 2.82 µM,–
CCc1cc(C(=O)NNC(=S)Nc2cccc(C)c2)cs1,"inconclusive: 0.0501 µM [inhibitor, full curve, poor fit]",–
COc1ccc(NC(=O)c2ccccc2NC(=O)CSc2ccc(C)cc2)cc1,"inconclusive: 14.1 µM [inhibitor, single point]",–
Oc1ccc2ccccc2c1C1Nc2cccc3cccc(c23)N1,"inconclusive: 35.5 µM [inhibitor, single point]",–
Cc1cc(NC(=O)c2cc(C(C)(C)C)oc2C)no1,active: 12.6 µM,–
CCN1CCN(C2=C(NS(=O)(=O)c3ccc(C)cc3)C(=O)c3ccccc3C2=O)CC1,"inconclusive: 3.16 µM [inhibitor, partial curve]",–
O=C(NOC(=O)c1ccccc1F)c1ccc(OC(F)F)cc1,"inconclusive: 15.8 µM [inhibitor, single point]",–
Cc1nc2ccc(NS(=O)(=O)c3ccc4c(c3)OCCO4)cc2s1,"inconclusive: 3.55 µM [activator, single point]",–
Cc1onc(-c2ccccc2Cl)c1C(=O)Oc1cccc2cccnc12,"inconclusive: 15.8 µM [inhibitor, partial curve, poor fit]",–
CCc1cc(=O)oc2c3c(cc(OCC(=O)NCc4ccccn4)c12)OC(C)(C)CC3,inactive,–
O=c1[nH]c(-c2ccccn2)nc2ccccc12,active: 3.98 µM,–
O=C(OCC#CCSc1nnc(-c2ccncc2)o1)c1sc2ccccc2c1Cl,"inconclusive: 25.1 µM [inhibitor, single point]",–
CCc1ccc2c(c1)C1(NN=C(c3cccc4ccccc34)S1)C(=O)N2 (stereo not given),active: 2.82 µM,–
CCOc1ccc(N=Nc2cc(C(C)C)ccc2O)cc1,inactive,–
O=C1COc2ccc(N3C(=O)C=CC3=O)cc2N1,active: 6.31 µM,–
CC(=O)c1cn(CC(=O)Nc2ccc(C)cc2C)c2ccccc12,"inconclusive: 11.2 µM [activator, partial curve]",–
CC(=O)c1c(C)oc2ccc(N(C(C)=O)S(=O)(=O)c3ccc(Cl)c([N+](=O)[O-])c3)cc12,"inconclusive: 35.5 µM [inhibitor, single point]",–

# Twelve of these compounds in a different format.
SMILES | Potency | activity change, negative = inhibition
Cc1ccc(-c2nnc(SCc3ccccc3F)o2)cc1 | inconclusive: 31.6 µM [inhibitor, single point] | –
Cc1noc(C)c1C(=O)Nc1ccc(S(=O)(=O)N2CCCCC2)cc1 | inconclusive: 35.5 µM [activator, single point] | –
CCC1(C)Cc2nc3[nH]c(=S)n(-c4ccccc4C)c(=O)c3cc2CO1 (stereo not given) | active: 6.31 µM | –
Cc1cc(Cl)c2oc(C(=O)N(C)Cc3ccon3)c(C)c2c1 | inactive | –
Cc1cc(NC(=O)c2cc(C(C)(C)C)oc2C)no1 | active: 12.6 µM | –
CCN1CCN(C2=C(NS(=O)(=O)c3ccc(C)cc3)C(=O)c3ccccc3C2=O)CC1 | inconclusive: 3.16 µM [inhibitor, partial curve] | –
Cc1onc(-c2ccccc2Cl)c1C(=O)Oc1cccc2cccnc12 | inconclusive: 15.8 µM [inhibitor, partial curve, poor fit] | –
CCc1cc(=O)oc2c3c(cc(OCC(=O)NCc4ccccn4)c12)OC(C)(C)CC3 | inactive | –
O=C(OCC#CCSc1nnc(-c2ccncc2)o1)c1sc2ccccc2c1Cl | inconclusive: 25.1 µM [inhibitor, single point] | –
CCc1ccc2c(c1)C1(NN=C(c3cccc4ccccc34)S1)C(=O)N2 (stereo not given) | active: 2.82 µM | –
O=C1COc2ccc(N3C(=O)C=CC3=O)cc2N1 | active: 6.31 µM | –
CC(=O)c1c(C)oc2ccc(N(C(C)=O)S(=O)(=O)c3ccc(Cl)c([N+](=O)[O-])c3)cc12 | inconclusive: 35.5 µM [inhibitor, single point] | –

# Next records follow:

SMILES,Potency,"activity change, negative = inhibition"
C/C(=N/NC(=O)c1ccccn1)c1ccco1,active: 10 µM,–
Cc1ccc(CN2C(=O)N/C(=C/c3ccc4c(c3)n(C)c(=O)n4C)C2=O)cc1,"inconclusive: 12.6 µM [inhibitor, single point]",–
C=CCNC(=S)NNC(=O)COc1c(Cl)cc(Cl)cc1Cl,active: 1.26 µM,–
COc1ccc(/C(C)=N\Nc2nc(-c3ccccc3)cc(=O)[nH]2)cc1,inactive,–
S=C(CN1CCCC1=S)NCCc1ccccc1,active: 7.94 µM,–
Oc1cccc2ccc(/C=C/c3cccs3)nc12,active: 12.6 µM,–
Cn1cc(/C=C2\SC(=O)NC2=S)c2ccccc21,active: 2.51 µM,–
CCCCC(=O)N1CCN(c2nc3ccc(Cl)cc3s2)CC1,"inconclusive: 5.01 µM [activator, partial curve]",–
CCCCC(=O)NC(=S)NNS(=O)(=O)c1ccccc1,active: 12.6 µM,–
Cc1cnn(C(=S)NCC2CCCO2)c1 (stereo not given),active: 14.1 µM,–
NC(=O)c1c(NC(=O)CN2C(=O)CCC2=O)sc2c1CCCCC2,"inconclusive: 35.5 µM [activator, single point]",–
Nc1nc(CSc2ccccc2)nc(N2CCCCC2)n1,"inconclusive: 12.6 µM [inhibitor, single point]",–
CCC(NC(=S)NC1CCCCC1)c1ccc(C)cc1 (stereo not given),active: 2.82 µM,–
CCCC(=O)C1=C(O)C(c2cccc(Oc3ccccc3)c2)CCC1=O (stereo not given),active: 12.6 µM,–
COc1ccc(Br)cc1C(C[N+](=O)[O-])c1c(N)n(C)c(=O)n(C)c1=O (stereo not given),"inconclusive: 35.5 µM [inhibitor, single point]",–
Cc1ccccc1NC(=O)c1ccco1,–,inactive: -27.3% [at 1.91 µM]
COc1cc(/C=N/Nc2nc(=O)[nH]nc2C)ccc1O,active: 11.2 µM,–
COc1ccc(NC(=O)c2ccccc2)c([N+](=O)[O-])c1,"inconclusive: 0.224 µM [activator, full curve]",–
CN(c1ccc(C(=O)NCCSC(C)(C)C)cc1)S(C)(=O)=O,"inconclusive: 3.16 µM [activator, partial curve]",–
CCCN1C(=O)CC(c2ccco2)Sc2ccccc21 (stereo not given),active: 15.8 µM,–
CCn1c(-c2ccc(F)cc2)cnc1SCC(=O)N1CCc2ccccc21,"inconclusive: 22.4 µM [inhibitor, single point]",–
CNC(=S)N1N=C(c2ccc(Br)cc2)CC1c1ccc(OC)cc1 (stereo not given),"inconclusive: 35.5 µM [inhibitor, single point]",–
O=C(Cc1ccccc1[N+](=O)[O-])N1CCN(c2ccc(F)cc2)CC1,inactive,–
O=C(CCC(=O)c1cccs1)c1cccs1,"inconclusive: 35.5 µM [inhibitor, single point]",–
Cc1cc[n+](CC(=O)c2ccc(NC(=O)c3ccccc3)cc2)c2ccccc12,"inconclusive: 3.16 µM [inhibitor, single point]",–
